Test results published in patent publication US20080227698A1, “OLIGOPEPTIDES FOR TREATMENT OF OSTEOPOROSIS AND OTHER BONE DISEASES AND METHODS THEREOF” (Washington University, priority 2005, published 2008).
These are yes or no findings as the source states them, for the method shown. Some results given as binding are weak or reduced against the parent protein; the word gives no strength.

By UniProt entry, the sequences of proteins in these tests, tags left out. Residues count along the entry.
UniProt O75581, residues 20-1613: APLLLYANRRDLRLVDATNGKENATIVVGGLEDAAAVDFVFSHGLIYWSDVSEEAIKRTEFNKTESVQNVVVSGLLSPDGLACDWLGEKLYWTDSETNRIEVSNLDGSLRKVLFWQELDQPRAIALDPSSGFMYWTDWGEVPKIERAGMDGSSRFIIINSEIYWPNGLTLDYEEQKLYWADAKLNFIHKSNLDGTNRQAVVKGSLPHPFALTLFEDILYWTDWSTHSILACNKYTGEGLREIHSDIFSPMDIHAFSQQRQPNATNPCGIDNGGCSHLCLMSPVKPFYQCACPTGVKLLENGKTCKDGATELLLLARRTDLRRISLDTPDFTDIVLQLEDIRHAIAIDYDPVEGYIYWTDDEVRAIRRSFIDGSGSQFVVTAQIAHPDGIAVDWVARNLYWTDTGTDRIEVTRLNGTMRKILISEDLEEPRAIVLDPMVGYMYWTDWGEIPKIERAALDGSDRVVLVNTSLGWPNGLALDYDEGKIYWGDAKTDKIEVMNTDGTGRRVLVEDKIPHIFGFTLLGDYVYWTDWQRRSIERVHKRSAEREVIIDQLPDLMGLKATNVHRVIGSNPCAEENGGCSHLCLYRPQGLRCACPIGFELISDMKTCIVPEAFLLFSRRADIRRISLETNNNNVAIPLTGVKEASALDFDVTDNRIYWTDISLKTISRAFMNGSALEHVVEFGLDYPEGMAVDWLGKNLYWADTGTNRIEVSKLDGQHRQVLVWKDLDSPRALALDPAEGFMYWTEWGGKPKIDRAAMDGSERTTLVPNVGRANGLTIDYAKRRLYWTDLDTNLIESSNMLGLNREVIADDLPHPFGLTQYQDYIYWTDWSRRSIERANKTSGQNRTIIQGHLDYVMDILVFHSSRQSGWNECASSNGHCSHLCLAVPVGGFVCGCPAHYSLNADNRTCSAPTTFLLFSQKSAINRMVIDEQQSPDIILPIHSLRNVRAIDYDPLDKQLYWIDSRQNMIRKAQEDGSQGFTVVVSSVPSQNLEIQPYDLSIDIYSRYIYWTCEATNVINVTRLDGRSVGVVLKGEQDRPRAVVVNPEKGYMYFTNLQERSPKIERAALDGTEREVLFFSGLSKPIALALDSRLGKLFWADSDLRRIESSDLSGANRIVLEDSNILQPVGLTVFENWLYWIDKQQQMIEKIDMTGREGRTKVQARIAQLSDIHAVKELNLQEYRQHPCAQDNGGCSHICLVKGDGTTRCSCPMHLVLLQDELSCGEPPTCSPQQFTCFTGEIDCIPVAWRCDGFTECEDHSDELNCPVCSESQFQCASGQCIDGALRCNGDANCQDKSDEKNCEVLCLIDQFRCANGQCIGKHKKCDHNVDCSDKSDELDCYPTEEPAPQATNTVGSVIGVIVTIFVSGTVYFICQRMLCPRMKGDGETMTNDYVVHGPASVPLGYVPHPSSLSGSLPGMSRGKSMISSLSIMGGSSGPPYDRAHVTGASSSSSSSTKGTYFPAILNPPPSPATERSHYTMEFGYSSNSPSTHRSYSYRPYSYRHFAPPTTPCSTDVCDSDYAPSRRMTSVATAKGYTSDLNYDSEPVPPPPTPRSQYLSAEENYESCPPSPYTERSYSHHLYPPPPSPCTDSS

What was measured:
[1] = target: LRP6 on LRP6-transduced HT1080 cells (HA-tagged) (UniProt O75581); test: 125I-Mesd (150-195) binding to LRP6-transduced HT1080 cells (FIG. 4)
[2] = target: LRP6 on LRP6-transduced HT1080 cells (HA-tagged) (UniProt O75581); test: 125I-Mesd (150-195), 5 nM, binding to LRP6-transduced HT1080 cells, 3 h at 4 C

binding [1]: binds
binding [2]: binds
Binder: QMYPGKGGGSKEKNKTKPEKAKKKEGDPKPRASKEDNRAGSRREDL (peptide, not shown: small tags and cut ends, 125I-iodinated when used as radioligand) [Mesd (150-195)]
